This assay addresses Flag-tagged FEN1 (UniProt P39748). Kind of assay: co-IP; reciprocal co-IP from 293T cells co-expressing FANCA and FEN1; NETN lysis buffer, sonication, protein G beads, overnight at 4 °C.

The chains behind the UniProt entries cited, without tags or fusion partners.
UniProt P39748: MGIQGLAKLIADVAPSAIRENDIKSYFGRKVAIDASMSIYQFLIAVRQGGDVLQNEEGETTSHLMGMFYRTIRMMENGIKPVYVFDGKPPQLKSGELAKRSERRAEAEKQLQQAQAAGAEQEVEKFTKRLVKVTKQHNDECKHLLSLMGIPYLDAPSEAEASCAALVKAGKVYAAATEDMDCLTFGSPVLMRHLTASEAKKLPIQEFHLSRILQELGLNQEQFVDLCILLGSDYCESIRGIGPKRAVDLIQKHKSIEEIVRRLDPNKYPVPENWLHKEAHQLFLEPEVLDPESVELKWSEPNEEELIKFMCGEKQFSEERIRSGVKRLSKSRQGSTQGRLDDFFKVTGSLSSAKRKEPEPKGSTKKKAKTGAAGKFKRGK

No constants are given. Whether binding was seen depends on the method and setting. In cells and extracts the contact can be indirect. Some results given as binding are weak or reduced against the parent protein; the word gives no strength.

B1: FANCA full-length (protein, UniProt O15360 1-1455)
chain: MSDSWVPNSASGQDPGGRRRAWAELLAGRVKREKYNPERAQKLKESAVRLLRSHQDLNALLLEVEGPLCKKLSLSKVIDCDSSEAYANHSSSFIGSALQDQASRLGVPVGILSAGMVASSVGQICTAPAETSHPVLLTVEQRKKLSSLLEFAQYLLAHSMFSRLSFCQELWKIQSSLLLEAVWHLHVQGIVSLQELLESHPDMHAVGSWLFRNLCCLCEQMEASCQHADVARAMLSDFVQMFVLRGFQKNSDLRRTVEPEKMPQVTVDVLQRMLIFALDALAAGVQEESSTHKIVRCWFGVFSGHTLGSVISTDPLKRFFSHTLTQILTHSPVLKASDAVQMQREWSFARTHPLLTSLYRRLFVMLSAEELVGHLQEVLETQEVHWQRVLSFVSALVVCFPEAQQLLEDWVARLMAQAFESCQLDSMVTAFLVVRQAALEGPSAFLSYADWFKASFGSTRGYHGCSKKALVFLFTFLSELVPFESPRYLQVHILHPPLVPGKYRSLLTDYISLAKTRLADLKVSIENMGLYEDLSSAGDITEPHSQALQDVEKAIMVFEHTGNIPVTVMEASIFRRPYYVSHFLPALLTPRVLPKVPDSRVAFIESLKRADKIPPSLYSTYCQACSAAEEKPEDAALGVRAEPNSAEEPLGQLTAALGELRASMTDPSQRDVISAQVAVISERLRAVLGHNEDDSSVEISKIQLSINTPRLEPREHMAVDLLLTSFCQNLMAASSVAPPERQGPWAALFVRTMCGRVLPAVLTRLCQLLRHQGPSLSAPHVLGLAALAVHLGESRSALPEVDVGPPAPGAGLPVPALFDSLLTCRTRDSLFFCLKFCTAAISYSLCKFSSQSRDTLCSCLSPGLIKKFQFLMFRLFSEARQPLSEEDVASLSWRPLHLPSADWQRAALSLWTHRTFREVLKEEDVHLTYQDWLHLELEIQPEADALSDTERQDFHQWAIHEHFLPESSASGGCDGDLQAACTILVNALMDFHQSSRSYDHSENSDLVFGGRTGNEDIISRLQEMVADLELQQDLIVPLGHTPSQEHFLFEIFRRRLQALTSGWSVAASLQRQRELLMYKRILLRLPSSVLCGSSFQAEQPITARCEQFFHLVNSEMRNFCSHGGALTQDITAHFFRGLLNACLRSRDPSLMVDFILAKCQTKCPLILTSALVWWPSLEPVLLCRWRRHCQSPLPRELQKLQEGRQFASDFLSPEAASPAPNPDWLSAAALHFAIQQVREENIRKQLKKLDCEREELLVFLFFFSLMGLLSSHLTSNSTTDLPKAFHVCAAILECLEKRKISWLALFQLTESDLRLGRLLLRVAPDQHTRLLPFAFYSLLSYFHEDAAIREEAFLHVAVDMYLKLVQLFVAGDTSTVSPPAGRSLELKGQGNPVELITKARLFLLQLIPRCPKKSFSHVAELLADRGDCDPEVSAALQSRQQAAPDADLSQEPHLF
Take B1: the binding entry is listed as “binds”.

(Values after paper PMC12236914.)
